Target: T1, mDDO (mouse D-aspartate oxidase) (Mus musculus, UniProt Q922Z0)
T1 sequence (Q922Z0 1-341): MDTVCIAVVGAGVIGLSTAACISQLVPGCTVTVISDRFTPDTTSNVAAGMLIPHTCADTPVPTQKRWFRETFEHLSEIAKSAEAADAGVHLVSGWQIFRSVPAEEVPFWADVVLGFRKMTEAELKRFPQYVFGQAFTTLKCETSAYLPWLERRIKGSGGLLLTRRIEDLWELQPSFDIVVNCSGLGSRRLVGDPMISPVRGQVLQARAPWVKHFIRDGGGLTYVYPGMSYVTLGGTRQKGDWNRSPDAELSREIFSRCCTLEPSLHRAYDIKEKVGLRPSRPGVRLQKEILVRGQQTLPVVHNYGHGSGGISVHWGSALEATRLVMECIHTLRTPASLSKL
Test: biochemical
Parameters: gene Ddo

Q: How did the IC50 turn out when `Cc1cc2c(s1)Nc1ccccc1N=C2N1CCN(C)CC1` [olanzapine] was run?
A: 5.6 ± 0.8 µM

From publication PMC5385520, “Olanzapine, but not clozapine, increases glutamate release in the prefrontal cortex of freely moving mice by inhibiting D-aspartate oxidase activity” (Scientific Reports, 2017)
